According to patent US11913021B2, “Methods and compositions for promoting survival and proliferation of endothelial cells and stimulating angiogenesis” (Cornell Research Foundation, Inc., priority 2007, dated 2024):
Entries after “also recorded” stand apart in the source; their conditions may differ. At least one structure is not confirmed: it was looked up by name or label, or the drawing left a doubt.

Tested on: E4ORF1-infected ECs
Experiment: Survival of E4ORF1-infected ECs with signaling inhibitors (trypan blue viable cell count)
Assay type: cell-based, human
Details: rapamycin 50 ng/ml, LY-294002 10 μg/ml, 3 days, serum-free, growth factor-free medium

| Structure (SMILES) | effect on pro-survival effect of E4ORF1 in ECs |
| --- | --- |
| O=c1cc(N2CCOCC2)oc2c(-c3ccccc3)cccc12 [LY-294002] | significantly suppressed |
| CO[C@H]1C[C@@H]2CC[C@@H](C)[C@@](O)(O2)C(=O)C(=O)N2CCCC[C@H]2C(=O)O[C@H]([C@H](C)C[C@@H]2CC[C@@H](O)[C@H](OC)C2)CC(=O)[C@H](C)/C=C(\C)[C@@H](O)[C@@H](OC)C(=O)[C@H](C)C[C@H](C)/C=C/C=C/C=C/1C [rapamycin] | only partially reversed; also recorded: only partially effective; also recorded: only moderately reduced |
